Test results as given in EP0639202B1 (COR THERAPEUTICS, INC., priority 1992, dated 1993).

How the values were obtained:
[1] = general procedure: Boc solid-phase peptide synthesis; pMBHA resin; conditions: whole synthesis, scale 0.5 mmol
[2] = general procedure: Boc solid-phase peptide synthesis; pMBHA resin (0.72 meq/g); PAM-Gly resin (0.6 meq/g); conditions: whole synthesis, scale of the general procedure One-half mmol
[3] = general procedure: Boc solid-phase peptide synthesis; PAM-Gly resin; conditions: whole synthesis, scale 0.5 mmol

For G-C-G-K-G-D-W-P-C-A-NH2 (GCGKGDWPCA), the crude mass [1] was 370 mg and the “final HPLC purity” value [2] was “minimum purity of 90%”.
“[E^28L^41C^64]barbourin (28-73):E-C-A-D-G-L-C-C-D-O-CRFLKKGTVCRVAKGDWNDDTCTG-O-S-C-D-C-P-R-N-G-L-Y-G” gave an isolated mass [3] of 1.6 mg.
With “cyclic form of Mpr-L-homoarginine-Gly-Asp-Trp-Pro-Cys-NH2 • acetate polypeptide (I)” the “final purity (method not given)” value ([2]; HPLC, acetate) was “greater than 95%”.
